# The list shows a part of the results. Most of these values are background signal.
# Tests used:
# Assay in all cases: fluorescence intensity of antibody binding to polysaccharide-coupled beads; higher = stronger binding
# [1] = biological target: pneumococcal polysaccharide Pn10A
# [2] = biological target: pneumococcal polysaccharide Pn10B
# [3] = biological target: pneumococcal polysaccharide Pn10C
# [4] = biological target: pneumococcal polysaccharide Pn10F
# [5] = biological target: pneumococcal polysaccharide Pn11A
# [6] = biological target: pneumococcal polysaccharide Pn11B
# [7] = biological target: pneumococcal polysaccharide Pn11C
# [8] = biological target: pneumococcal polysaccharide Pn11D
# [9] = biological target: pneumococcal polysaccharide Pn11F
# [10] = biological target: pneumococcal polysaccharide Pn12A
# [11] = biological target: pneumococcal polysaccharide Pn12B
# [12] = biological target: pneumococcal polysaccharide Pn12F
# [13] = biological target: pneumococcal polysaccharide Pn13
# [14] = biological target: pneumococcal polysaccharide Pn14
# [15] = biological target: pneumococcal polysaccharide Pn15A
# [16] = biological target: pneumococcal polysaccharide Pn15B
# [17] = biological target: pneumococcal polysaccharide Pn15C
# [18] = biological target: pneumococcal polysaccharide Pn15F
# [19] = biological target: pneumococcal polysaccharide Pn16A
# [20] = biological target: pneumococcal polysaccharide Pn16F
# [21] = biological target: pneumococcal polysaccharide Pn17A
# [22] = biological target: pneumococcal polysaccharide Pn17F
# [23] = biological target: pneumococcal polysaccharide Pn18A
# [24] = biological target: pneumococcal polysaccharide Pn18B
# [25] = antibody concentration 2337.65 ng/mL
# [26] = antibody concentration 12500 ng/mL
# [27] = antibody concentration 0.1 ng/mL
# [28] = antibody concentration 0.534724 ng/mL
# [29] = antibody concentration 2.8593 ng/mL
# [30] = antibody concentration 15.2894 ng/mL
# [31] = antibody concentration 81.7561 ng/mL
# [32] = antibody concentration 437.17 ng/mL
binder,measurement,setting,value
4-173.5 (protein) chain 1: QLQLQESGPGLVKPSETLSLTCAVSGDSISSNYWSWIRQPPGKGLEWIGRISDGGGSTDYNPSLKSRVTISTDTSKNQFSLKLNSVTAADTAVYFCARGSYRVDYWGQGVLVTVSS chain 2: QAALTQPPSMSGSPGQSVTISCTGASSDIGGYNRVSWYQQHPANAPKLMIYDVSKRPSGVSDRFSGSKSGNTASLTISGLQADDEADYYCSSYAHINTALFGGGTRLTVL,fluorescence intensity,[1]; [25],2210 MFI
same,fluorescence intensity,[1]; [26],3340 MFI
same,fluorescence intensity,[2]; [27],24.5 MFI
same,fluorescence intensity,[2]; [28],24 MFI
same,fluorescence intensity,[2]; [29],30.5 MFI
same,fluorescence intensity,[2]; [30],47.5 MFI
same,fluorescence intensity,[2]; [31],164 MFI
same,fluorescence intensity,[2]; [32],850 MFI
same,fluorescence intensity,[2]; [25],2670 MFI
same,fluorescence intensity,[2]; [26],3970 MFI
same,fluorescence intensity,[3]; [27],15.5 MFI
same,fluorescence intensity,[3]; [28],16.5 MFI
same,fluorescence intensity,[3]; [29],17.8 MFI
same,fluorescence intensity,[3]; [30],24.5 MFI
same,fluorescence intensity,[3]; [31],83 MFI
same,fluorescence intensity,[3]; [32],528 MFI
same,fluorescence intensity,[3]; [25],2480 MFI
same,fluorescence intensity,[3]; [26],3950 MFI
same,fluorescence intensity,[4]; [27],20 MFI
same,fluorescence intensity,[4]; [28],20 MFI
same,fluorescence intensity,[4]; [29],19 MFI
same,fluorescence intensity,[4]; [30],25 MFI
same,fluorescence intensity,[4]; [31],49.2 MFI
same,fluorescence intensity,[4]; [32],276 MFI
same,fluorescence intensity,[4]; [25],1690 MFI
same,fluorescence intensity,[4]; [26],2840 MFI
same,fluorescence intensity,[5]; [27],30 MFI
same,fluorescence intensity,[5]; [28],27.5 MFI
same,fluorescence intensity,[5]; [29],29.8 MFI
same,fluorescence intensity,[5]; [30],36 MFI
same,fluorescence intensity,[5]; [31],84.8 MFI
same,fluorescence intensity,[5]; [32],276 MFI
same,fluorescence intensity,[5]; [25],854 MFI
same,fluorescence intensity,[5]; [26],1320 MFI
same,fluorescence intensity,[6]; [27],27 MFI
same,fluorescence intensity,[6]; [28],27.2 MFI
same,fluorescence intensity,[6]; [29],26 MFI
same,fluorescence intensity,[6]; [30],42.5 MFI
same,fluorescence intensity,[6]; [31],138 MFI
same,fluorescence intensity,[6]; [32],803 MFI
same,fluorescence intensity,[6]; [25],2890 MFI
same,fluorescence intensity,[6]; [26],4050 MFI
same,fluorescence intensity,[7]; [27],22 MFI
same,fluorescence intensity,[7]; [28],22.2 MFI
same,fluorescence intensity,[7]; [29],23 MFI
same,fluorescence intensity,[7]; [30],25 MFI
same,fluorescence intensity,[7]; [31],53 MFI
same,fluorescence intensity,[7]; [32],230 MFI
same,fluorescence intensity,[7]; [25],1160 MFI
same,fluorescence intensity,[7]; [26],3030 MFI
same,fluorescence intensity,[8]; [27],24 MFI
same,fluorescence intensity,[8]; [28],23.5 MFI
same,fluorescence intensity,[8]; [29],25.5 MFI
same,fluorescence intensity,[8]; [30],38 MFI
same,fluorescence intensity,[8]; [31],177 MFI
same,fluorescence intensity,[8]; [32],899 MFI
same,fluorescence intensity,[8]; [25],3240 MFI
same,fluorescence intensity,[8]; [26],5510 MFI
same,fluorescence intensity,[9]; [27],13.8 MFI
same,fluorescence intensity,[9]; [28],14.2 MFI
same,fluorescence intensity,[9]; [29],15 MFI
same,fluorescence intensity,[9]; [30],18.5 MFI
same,fluorescence intensity,[9]; [31],50.5 MFI
same,fluorescence intensity,[9]; [32],250 MFI
same,fluorescence intensity,[9]; [25],1650 MFI
same,fluorescence intensity,[9]; [26],2900 MFI
same,fluorescence intensity,[10]; [27],15 MFI
same,fluorescence intensity,[10]; [28],15 MFI
same,fluorescence intensity,[10]; [29],16.8 MFI
same,fluorescence intensity,[10]; [30],21.5 MFI
same,fluorescence intensity,[10]; [31],73.8 MFI
same,fluorescence intensity,[10]; [32],471 MFI
same,fluorescence intensity,[10]; [25],2420 MFI
same,fluorescence intensity,[10]; [26],5350 MFI
same,fluorescence intensity,[11]; [27],16 MFI
same,fluorescence intensity,[11]; [28],15 MFI
same,fluorescence intensity,[11]; [29],15 MFI
same,fluorescence intensity,[11]; [30],18 MFI
same,fluorescence intensity,[11]; [31],36.8 MFI
same,fluorescence intensity,[11]; [32],205 MFI
same,fluorescence intensity,[11]; [25],1390 MFI
same,fluorescence intensity,[11]; [26],3980 MFI
same,fluorescence intensity,[12]; [27],20.5 MFI
same,fluorescence intensity,[12]; [28],19.5 MFI
same,fluorescence intensity,[12]; [29],22 MFI
same,fluorescence intensity,[12]; [30],42 MFI
same,fluorescence intensity,[12]; [31],165 MFI
same,fluorescence intensity,[12]; [32],840 MFI
same,fluorescence intensity,[12]; [25],2490 MFI
same,fluorescence intensity,[12]; [26],3990 MFI
same,fluorescence intensity,[13]; [27],20 MFI
same,fluorescence intensity,[13]; [28],19.8 MFI
same,fluorescence intensity,[13]; [29],21 MFI
same,fluorescence intensity,[13]; [30],41 MFI
same,fluorescence intensity,[13]; [31],220 MFI
same,fluorescence intensity,[13]; [32],1250 MFI
same,fluorescence intensity,[13]; [25],4200 MFI
same,fluorescence intensity,[13]; [26],6240 MFI
same,fluorescence intensity,[14]; [27],14 MFI
same,fluorescence intensity,[14]; [28],14.5 MFI
same,fluorescence intensity,[14]; [29],14 MFI
same,fluorescence intensity,[14]; [30],16.5 MFI
same,fluorescence intensity,[14]; [31],22.5 MFI
same,fluorescence intensity,[14]; [32],62.5 MFI
same,fluorescence intensity,[14]; [25],219 MFI
same,fluorescence intensity,[14]; [26],505 MFI
same,fluorescence intensity,[15]; [27],14 MFI
same,fluorescence intensity,[15]; [28],13.5 MFI
same,fluorescence intensity,[15]; [29],17.5 MFI
same,fluorescence intensity,[15]; [30],39.2 MFI
same,fluorescence intensity,[15]; [31],213 MFI
same,fluorescence intensity,[15]; [32],1130 MFI
same,fluorescence intensity,[15]; [25],4020 MFI
same,fluorescence intensity,[15]; [26],5830 MFI
same,fluorescence intensity,[16]; [27],18 MFI
same,fluorescence intensity,[16]; [28],19.5 MFI
same,fluorescence intensity,[16]; [29],23 MFI
same,fluorescence intensity,[16]; [30],32.5 MFI
same,fluorescence intensity,[16]; [31],104 MFI
same,fluorescence intensity,[16]; [32],452 MFI
same,fluorescence intensity,[16]; [25],1800 MFI
same,fluorescence intensity,[16]; [26],2930 MFI
same,fluorescence intensity,[17]; [27],17 MFI
same,fluorescence intensity,[17]; [28],15 MFI
same,fluorescence intensity,[17]; [29],18.8 MFI
same,fluorescence intensity,[17]; [30],35 MFI
same,fluorescence intensity,[17]; [31],186 MFI
same,fluorescence intensity,[17]; [32],1040 MFI
same,fluorescence intensity,[17]; [25],3540 MFI
same,fluorescence intensity,[17]; [26],4960 MFI
same,fluorescence intensity,[18]; [27],17.5 MFI
same,fluorescence intensity,[18]; [28],16.2 MFI
same,fluorescence intensity,[18]; [29],23.5 MFI
same,fluorescence intensity,[18]; [30],55.5 MFI
same,fluorescence intensity,[18]; [31],346 MFI
same,fluorescence intensity,[18]; [32],1580 MFI
same,fluorescence intensity,[18]; [25],5080 MFI
same,fluorescence intensity,[18]; [26],7300 MFI
same,fluorescence intensity,[19]; [27],13.5 MFI
same,fluorescence intensity,[19]; [28],14 MFI
same,fluorescence intensity,[19]; [29],14 MFI
same,fluorescence intensity,[19]; [30],16 MFI
same,fluorescence intensity,[19]; [31],27.5 MFI
same,fluorescence intensity,[19]; [32],140 MFI
same,fluorescence intensity,[19]; [25],899 MFI
same,fluorescence intensity,[19]; [26],1760 MFI
same,fluorescence intensity,[20]; [27],25 MFI
same,fluorescence intensity,[20]; [28],24.8 MFI
same,fluorescence intensity,[20]; [29],26 MFI
same,fluorescence intensity,[20]; [30],32 MFI
same,fluorescence intensity,[20]; [31],100 MFI
same,fluorescence intensity,[20]; [32],502 MFI
same,fluorescence intensity,[20]; [25],2000 MFI
same,fluorescence intensity,[20]; [26],3340 MFI
same,fluorescence intensity,[21]; [27],20.5 MFI
same,fluorescence intensity,[21]; [28],21 MFI
same,fluorescence intensity,[21]; [29],22.5 MFI
same,fluorescence intensity,[21]; [30],34.5 MFI
same,fluorescence intensity,[21]; [31],134 MFI
same,fluorescence intensity,[21]; [32],733 MFI
same,fluorescence intensity,[21]; [25],2680 MFI
same,fluorescence intensity,[21]; [26],4100 MFI
same,fluorescence intensity,[22]; [27],28 MFI
same,fluorescence intensity,[22]; [28],26.8 MFI
same,fluorescence intensity,[22]; [29],29.5 MFI
same,fluorescence intensity,[22]; [30],51.5 MFI
same,fluorescence intensity,[22]; [31],212 MFI
same,fluorescence intensity,[22]; [32],994 MFI
same,fluorescence intensity,[22]; [25],2990 MFI
same,fluorescence intensity,[22]; [26],4070 MFI
same,fluorescence intensity,[23]; [27],24.5 MFI
same,fluorescence intensity,[23]; [28],23.5 MFI
same,fluorescence intensity,[23]; [29],24.8 MFI
same,fluorescence intensity,[23]; [30],32.5 MFI
same,fluorescence intensity,[23]; [31],78.2 MFI
same,fluorescence intensity,[23]; [32],390 MFI
same,fluorescence intensity,[23]; [25],1600 MFI
same,fluorescence intensity,[23]; [26],2940 MFI
same,fluorescence intensity,[24]; [27],29 MFI
same,fluorescence intensity,[24]; [28],30.2 MFI

# For convenience, some entries already given.
binder,measurement,setting,value
4-173.5 (protein) chain 1: QLQLQESGPGLVKPSETLSLTCAVSGDSISSNYWSWIRQPPGKGLEWIGRISDGGGSTDYNPSLKSRVTISTDTSKNQFSLKLNSVTAADTAVYFCARGSYRVDYWGQGVLVTVSS chain 2: QAALTQPPSMSGSPGQSVTISCTGASSDIGGYNRVSWYQQHPANAPKLMIYDVSKRPSGVSDRFSGSKSGNTASLTISGLQADDEADYYCSSYAHINTALFGGGTRLTVL,fluorescence intensity,[15]; [25],4020 MFI
same,fluorescence intensity,[15]; [26],5830 MFI
same,fluorescence intensity,[16]; [27],18 MFI
same,fluorescence intensity,[16]; [28],19.5 MFI
same,fluorescence intensity,[16]; [29],23 MFI
same,fluorescence intensity,[16]; [30],32.5 MFI
same,fluorescence intensity,[16]; [31],104 MFI
same,fluorescence intensity,[16]; [32],452 MFI
same,fluorescence intensity,[16]; [25],1800 MFI
same,fluorescence intensity,[16]; [26],2930 MFI
same,fluorescence intensity,[17]; [27],17 MFI
same,fluorescence intensity,[17]; [28],15 MFI
same,fluorescence intensity,[17]; [29],18.8 MFI
same,fluorescence intensity,[17]; [30],35 MFI
same,fluorescence intensity,[17]; [31],186 MFI
same,fluorescence intensity,[17]; [32],1040 MFI
same,fluorescence intensity,[17]; [25],3540 MFI
same,fluorescence intensity,[17]; [26],4960 MFI
same,fluorescence intensity,[18]; [27],17.5 MFI
same,fluorescence intensity,[18]; [28],16.2 MFI
same,fluorescence intensity,[18]; [29],23.5 MFI
same,fluorescence intensity,[18]; [30],55.5 MFI
same,fluorescence intensity,[18]; [31],346 MFI
same,fluorescence intensity,[18]; [32],1580 MFI
same,fluorescence intensity,[18]; [25],5080 MFI
same,fluorescence intensity,[18]; [26],7300 MFI
same,fluorescence intensity,[19]; [27],13.5 MFI
same,fluorescence intensity,[19]; [28],14 MFI
same,fluorescence intensity,[19]; [29],14 MFI
same,fluorescence intensity,[19]; [30],16 MFI
same,fluorescence intensity,[19]; [31],27.5 MFI
same,fluorescence intensity,[19]; [32],140 MFI
same,fluorescence intensity,[19]; [25],899 MFI
same,fluorescence intensity,[19]; [26],1760 MFI
same,fluorescence intensity,[20]; [27],25 MFI
same,fluorescence intensity,[20]; [28],24.8 MFI
same,fluorescence intensity,[20]; [29],26 MFI
same,fluorescence intensity,[20]; [30],32 MFI
same,fluorescence intensity,[20]; [31],100 MFI
same,fluorescence intensity,[20]; [32],502 MFI
same,fluorescence intensity,[20]; [25],2000 MFI
same,fluorescence intensity,[20]; [26],3340 MFI
same,fluorescence intensity,[21]; [27],20.5 MFI
same,fluorescence intensity,[21]; [28],21 MFI
same,fluorescence intensity,[21]; [29],22.5 MFI
same,fluorescence intensity,[21]; [30],34.5 MFI
same,fluorescence intensity,[21]; [31],134 MFI
same,fluorescence intensity,[21]; [32],733 MFI
same,fluorescence intensity,[21]; [25],2680 MFI
